In test [1] the target is T1, KCTD7-WT (transfected, 293T) (human) (UniProt Q96MP8).
T1 sequence: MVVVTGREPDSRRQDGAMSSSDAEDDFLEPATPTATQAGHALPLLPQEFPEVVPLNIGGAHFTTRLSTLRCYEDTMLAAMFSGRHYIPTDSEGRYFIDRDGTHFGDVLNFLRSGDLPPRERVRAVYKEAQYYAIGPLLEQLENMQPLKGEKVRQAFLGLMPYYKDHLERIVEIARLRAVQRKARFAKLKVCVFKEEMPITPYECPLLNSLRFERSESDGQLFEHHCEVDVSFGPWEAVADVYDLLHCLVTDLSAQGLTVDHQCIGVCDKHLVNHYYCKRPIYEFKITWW
In words: co-IP; anti-FLAG co-IP from 293T cells transfected with the indicated plasmids, Western blot; MG132 (10 μM, 8 hours) before harvesting in Fig. 3E, 3G and 5E.

Test [2] has as its target T2, KCTD7 in pBiFC-VC155 (human) (UniProt Q96MP8).
T2 sequence: T1 sequence
Briefly: split reporter; BiFC: CLN5 in pBiFC-VN173 and KCTD7 in pBiFC-VC155, cells transfected for 24 hours, fluorescence microscopy and FACS of GFP-positive cells.

In test [3] the target is T3, KCTD7-FLAG (endogenous KCTD7 with a knocked-in FLAG tag) (human (endogenous in HeLa)) (UniProt Q96MP8).
T3 sequence: T1 sequence
Briefly: co-IP; KCTD7-FLAG knock-in HeLa cells, IP with IgG or anti-FLAG antibody, Western blot of endogenous partners.

The target of test [4] is T3, KCTD7-FLAG (endogenous KCTD7 with a knocked-in FLAG tag) (human (endogenous in HeLa)). In words: proximity ligation; Duolink in situ PLA in FLAG-KCTD7 KI HeLa cells with anti-FLAG and anti-CLN5 antibodies; single-antibody staining as negative control.
In test [5] the target is T1, KCTD7-WT (transfected, 293T) (human). Briefly: co-IP; anti-FLAG co-IP from transfected 293T cells; lysates treated with or without PNGase F for 12 hours at 37°C before co-IP.

Results are given in words; binding and its absence hold for the method and conditions named. Binding seen in cells or lysates may run through a third protein. Some binding calls cover weakened binding; strength is not graded here. For part of these data: Tags and fused reporters may be left off the sequences shown.

B1: CLN6 (transfected, 293T) (protein, UniProt Q9NWW5 1-311)
chain: MEATRRRQHLGATGGPGAQLGASFLQARHGSVSADEAARTAPFHLDLWFYFTLQNWVLDFGRPIAMLVFPLEWFPLNKPSVGDYFHMAYNVITPFLLLKLIERSPRTLPRSITYVSIIIFIMGASIHLVGDSVNHRLLFSGYQHHLSVRENPIIKNLKPETLIDSFELLYYYDEYLGHCMWYIPFFLILFMYFSGCFTASKAESLIPGPALLLVAPSGLYYWYLVTEGQIFILFIFTFFAMLALVLHQKRKRLFLDSNGLFLFSSFALTLLLVALWVAWLWNDPVLRKKYPGVIYVPEPWAFYTLHVSSRH
For B1, the binding result in test [1] is recorded as “binds weakly”.

B2: CLN5 in pBiFC-VN173 (protein, UniProt O75503 1-358)
chain: MAQEVDTAQGAEMRRGAGAARGRASWCWALALLWLAVVPGWSRVSGIPSRRHWPVPYKRFDFRPKPDPYCQAKYTFCPTGSPIPVMEGDDDIEVFRLQAPVWEFKYGDLLGHLKIMHDAIGFRSTLTGKNYTMEWYELFQLGNCTFPHLRPEMDAPFWCNQGAACFFEGIDDVHWKENGTLVQVATISGNMFNQMAKWVKQDNETGIYYETWNVKASPEKGAETWFDSYDCSKFVLRTFNKLAEFGAEFKNIETNYTRIFLYSGEPTYLGNETSVFGPTGNKTLGLAIKRFYYPFKPHLPTKEFLLSLLQIFDAVIVHKQFYLFYNFEYWFLPMKFPFIKITYEEIPLPIRNKTLSGL
Take B2: the binding entry in test [2] was “binds”.

B3: CLN5 (endogenous, HeLa) (protein, UniProt O75503 1-358)
chain: B2 chain
modifications: heavily N-glycosylated (about 50 kDa, about 35 kDa after PNGase F)
For the molecule B3, the binding result in test [3] and in test [4] was “binds” each time.

B4: CLN5 (transfected, 293T) (protein, UniProt O75503 1-358)
chain: B2 chain
modifications: N-glycosylated
Regarding B4, the binding entry in test [5] and in test [1] was “binds” in each case.

The values are drawn from publication PMC9348797.
